Reference: the supplement of paper PMC10849652
Some of the results follow.

Chains of the proteins cited; added tags and fusions are not shown. Lines headed by an entry give the natural chain unless they say otherwise; changes in a name come on top.
UniProt Q9P0L0: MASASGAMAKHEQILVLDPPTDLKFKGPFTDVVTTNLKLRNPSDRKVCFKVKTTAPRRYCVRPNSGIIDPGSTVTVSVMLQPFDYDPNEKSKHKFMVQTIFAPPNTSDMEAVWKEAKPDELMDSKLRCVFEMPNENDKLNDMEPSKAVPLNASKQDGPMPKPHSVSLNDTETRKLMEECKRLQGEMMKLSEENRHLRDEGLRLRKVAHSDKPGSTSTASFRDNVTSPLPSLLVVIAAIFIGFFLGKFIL
UniProt O75379: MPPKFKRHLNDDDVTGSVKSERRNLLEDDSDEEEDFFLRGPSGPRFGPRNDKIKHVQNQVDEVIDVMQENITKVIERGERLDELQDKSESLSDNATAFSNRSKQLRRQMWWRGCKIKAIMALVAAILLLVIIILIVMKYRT
UniProt P47985: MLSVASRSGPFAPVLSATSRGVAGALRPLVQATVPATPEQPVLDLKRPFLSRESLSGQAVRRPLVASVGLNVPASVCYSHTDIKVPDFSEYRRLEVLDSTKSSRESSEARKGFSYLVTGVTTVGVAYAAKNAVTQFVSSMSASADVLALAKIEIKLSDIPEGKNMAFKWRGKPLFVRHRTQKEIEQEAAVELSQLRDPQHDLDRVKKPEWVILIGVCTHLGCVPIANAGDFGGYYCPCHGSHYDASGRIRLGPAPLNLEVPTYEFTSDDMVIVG
UniProt P40818: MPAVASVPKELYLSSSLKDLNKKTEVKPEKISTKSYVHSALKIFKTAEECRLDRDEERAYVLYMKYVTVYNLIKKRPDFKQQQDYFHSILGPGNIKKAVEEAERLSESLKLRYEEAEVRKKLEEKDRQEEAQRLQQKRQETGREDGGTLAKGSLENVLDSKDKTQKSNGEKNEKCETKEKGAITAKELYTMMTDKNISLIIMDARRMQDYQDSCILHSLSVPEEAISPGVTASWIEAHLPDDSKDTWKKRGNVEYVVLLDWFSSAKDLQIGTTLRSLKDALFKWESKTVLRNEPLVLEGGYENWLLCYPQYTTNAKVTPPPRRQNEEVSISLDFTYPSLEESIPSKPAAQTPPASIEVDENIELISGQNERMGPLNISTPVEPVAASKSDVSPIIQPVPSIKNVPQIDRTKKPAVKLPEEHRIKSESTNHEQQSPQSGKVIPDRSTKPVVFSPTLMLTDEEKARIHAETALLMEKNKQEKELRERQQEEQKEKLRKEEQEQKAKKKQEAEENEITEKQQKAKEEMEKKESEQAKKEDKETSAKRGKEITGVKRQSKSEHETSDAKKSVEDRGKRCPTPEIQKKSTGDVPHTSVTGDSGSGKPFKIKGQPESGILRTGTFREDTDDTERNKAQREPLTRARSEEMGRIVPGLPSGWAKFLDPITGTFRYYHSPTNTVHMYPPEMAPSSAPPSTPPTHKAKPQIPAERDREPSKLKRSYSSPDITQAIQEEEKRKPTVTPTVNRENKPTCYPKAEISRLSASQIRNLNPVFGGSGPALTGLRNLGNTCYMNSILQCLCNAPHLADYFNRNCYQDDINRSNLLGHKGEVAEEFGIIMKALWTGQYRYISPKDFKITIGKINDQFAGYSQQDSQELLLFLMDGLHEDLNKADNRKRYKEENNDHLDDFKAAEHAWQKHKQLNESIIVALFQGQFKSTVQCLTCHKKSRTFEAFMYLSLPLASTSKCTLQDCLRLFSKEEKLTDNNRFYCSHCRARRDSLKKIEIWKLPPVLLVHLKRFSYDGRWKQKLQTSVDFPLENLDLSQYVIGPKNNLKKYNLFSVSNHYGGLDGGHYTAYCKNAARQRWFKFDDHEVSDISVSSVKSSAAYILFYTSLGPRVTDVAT
UniProt Q92738: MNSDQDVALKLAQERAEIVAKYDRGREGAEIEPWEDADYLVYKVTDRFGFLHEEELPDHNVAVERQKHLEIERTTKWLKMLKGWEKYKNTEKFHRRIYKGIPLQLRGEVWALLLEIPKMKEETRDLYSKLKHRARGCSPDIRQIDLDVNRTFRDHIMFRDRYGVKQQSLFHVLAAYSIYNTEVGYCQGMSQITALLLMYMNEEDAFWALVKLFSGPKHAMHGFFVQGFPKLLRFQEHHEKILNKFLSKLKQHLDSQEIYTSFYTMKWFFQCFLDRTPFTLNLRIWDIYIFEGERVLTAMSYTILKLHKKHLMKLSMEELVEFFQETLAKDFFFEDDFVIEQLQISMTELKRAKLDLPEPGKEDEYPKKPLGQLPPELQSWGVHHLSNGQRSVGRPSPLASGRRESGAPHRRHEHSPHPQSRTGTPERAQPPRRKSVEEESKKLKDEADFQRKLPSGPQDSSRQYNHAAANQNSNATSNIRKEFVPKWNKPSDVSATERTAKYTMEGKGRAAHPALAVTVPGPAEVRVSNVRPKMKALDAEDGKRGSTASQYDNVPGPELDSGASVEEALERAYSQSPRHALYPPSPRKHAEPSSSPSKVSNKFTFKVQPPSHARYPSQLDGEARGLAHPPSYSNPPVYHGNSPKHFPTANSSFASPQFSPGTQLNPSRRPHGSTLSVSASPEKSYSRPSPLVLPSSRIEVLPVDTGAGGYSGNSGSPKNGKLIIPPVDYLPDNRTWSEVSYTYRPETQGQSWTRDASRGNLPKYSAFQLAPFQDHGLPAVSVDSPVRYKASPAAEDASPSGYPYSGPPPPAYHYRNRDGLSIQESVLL
UniProt O75317, whole entry, looked up: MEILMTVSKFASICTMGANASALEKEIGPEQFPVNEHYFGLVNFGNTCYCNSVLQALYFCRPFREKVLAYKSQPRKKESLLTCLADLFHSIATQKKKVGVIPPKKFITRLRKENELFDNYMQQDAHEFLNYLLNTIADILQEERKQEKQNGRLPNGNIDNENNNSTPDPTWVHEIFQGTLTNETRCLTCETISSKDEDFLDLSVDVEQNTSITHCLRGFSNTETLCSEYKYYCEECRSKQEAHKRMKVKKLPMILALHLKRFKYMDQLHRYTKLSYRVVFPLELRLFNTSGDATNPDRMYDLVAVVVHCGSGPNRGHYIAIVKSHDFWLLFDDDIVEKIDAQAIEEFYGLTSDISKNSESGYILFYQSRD
UniProt P40337, whole entry, looked up: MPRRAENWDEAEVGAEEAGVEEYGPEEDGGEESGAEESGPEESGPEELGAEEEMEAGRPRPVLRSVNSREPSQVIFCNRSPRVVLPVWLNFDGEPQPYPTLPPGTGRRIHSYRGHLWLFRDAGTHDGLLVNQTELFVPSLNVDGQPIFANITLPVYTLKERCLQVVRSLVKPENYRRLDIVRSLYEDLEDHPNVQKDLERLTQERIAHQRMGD
UniProt O14795: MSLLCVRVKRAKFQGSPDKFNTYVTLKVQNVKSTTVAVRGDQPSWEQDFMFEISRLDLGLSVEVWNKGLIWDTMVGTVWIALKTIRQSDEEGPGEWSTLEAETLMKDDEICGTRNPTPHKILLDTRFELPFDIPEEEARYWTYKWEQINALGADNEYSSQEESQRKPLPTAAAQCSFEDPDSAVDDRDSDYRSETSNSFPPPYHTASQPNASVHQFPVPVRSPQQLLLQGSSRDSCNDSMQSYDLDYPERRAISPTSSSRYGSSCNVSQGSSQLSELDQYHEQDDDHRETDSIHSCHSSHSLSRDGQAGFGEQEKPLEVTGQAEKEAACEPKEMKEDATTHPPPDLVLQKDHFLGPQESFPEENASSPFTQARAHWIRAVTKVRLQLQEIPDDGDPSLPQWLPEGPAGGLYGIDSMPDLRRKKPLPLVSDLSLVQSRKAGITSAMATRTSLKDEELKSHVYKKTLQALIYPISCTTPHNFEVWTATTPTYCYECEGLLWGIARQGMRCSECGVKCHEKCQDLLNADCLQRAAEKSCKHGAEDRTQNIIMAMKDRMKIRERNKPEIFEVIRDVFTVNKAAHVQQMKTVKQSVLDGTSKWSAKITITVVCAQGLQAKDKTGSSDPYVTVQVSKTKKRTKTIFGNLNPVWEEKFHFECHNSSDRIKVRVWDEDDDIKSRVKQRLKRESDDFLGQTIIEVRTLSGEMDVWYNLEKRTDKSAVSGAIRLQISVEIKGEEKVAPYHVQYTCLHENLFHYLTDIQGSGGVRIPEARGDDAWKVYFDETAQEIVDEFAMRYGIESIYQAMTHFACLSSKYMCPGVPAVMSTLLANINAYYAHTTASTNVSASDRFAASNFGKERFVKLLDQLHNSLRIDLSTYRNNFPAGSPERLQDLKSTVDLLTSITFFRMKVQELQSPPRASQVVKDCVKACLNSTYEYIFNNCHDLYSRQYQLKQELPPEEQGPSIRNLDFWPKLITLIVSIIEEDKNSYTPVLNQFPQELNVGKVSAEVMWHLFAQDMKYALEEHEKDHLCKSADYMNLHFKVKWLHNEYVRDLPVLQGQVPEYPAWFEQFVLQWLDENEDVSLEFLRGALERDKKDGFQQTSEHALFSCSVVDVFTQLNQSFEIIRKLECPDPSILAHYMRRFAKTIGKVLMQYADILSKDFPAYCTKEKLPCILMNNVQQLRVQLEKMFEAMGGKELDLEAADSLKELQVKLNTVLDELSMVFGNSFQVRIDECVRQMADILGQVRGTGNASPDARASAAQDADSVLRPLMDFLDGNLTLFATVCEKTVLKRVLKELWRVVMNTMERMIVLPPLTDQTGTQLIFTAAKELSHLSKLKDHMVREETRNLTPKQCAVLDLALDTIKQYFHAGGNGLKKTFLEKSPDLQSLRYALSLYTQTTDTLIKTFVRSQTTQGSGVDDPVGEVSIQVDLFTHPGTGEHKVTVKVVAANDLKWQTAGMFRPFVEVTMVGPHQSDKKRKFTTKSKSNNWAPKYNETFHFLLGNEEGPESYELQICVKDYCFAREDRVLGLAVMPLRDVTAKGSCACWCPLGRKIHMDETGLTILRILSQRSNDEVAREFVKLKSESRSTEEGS
UniProt Q9BQ65: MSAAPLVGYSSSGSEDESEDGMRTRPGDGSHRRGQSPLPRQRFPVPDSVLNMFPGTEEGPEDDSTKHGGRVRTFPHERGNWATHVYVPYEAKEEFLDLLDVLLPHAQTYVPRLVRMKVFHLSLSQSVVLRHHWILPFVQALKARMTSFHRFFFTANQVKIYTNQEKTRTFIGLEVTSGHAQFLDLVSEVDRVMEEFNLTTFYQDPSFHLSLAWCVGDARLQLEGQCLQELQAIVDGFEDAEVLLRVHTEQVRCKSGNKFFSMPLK
UniProt P09327: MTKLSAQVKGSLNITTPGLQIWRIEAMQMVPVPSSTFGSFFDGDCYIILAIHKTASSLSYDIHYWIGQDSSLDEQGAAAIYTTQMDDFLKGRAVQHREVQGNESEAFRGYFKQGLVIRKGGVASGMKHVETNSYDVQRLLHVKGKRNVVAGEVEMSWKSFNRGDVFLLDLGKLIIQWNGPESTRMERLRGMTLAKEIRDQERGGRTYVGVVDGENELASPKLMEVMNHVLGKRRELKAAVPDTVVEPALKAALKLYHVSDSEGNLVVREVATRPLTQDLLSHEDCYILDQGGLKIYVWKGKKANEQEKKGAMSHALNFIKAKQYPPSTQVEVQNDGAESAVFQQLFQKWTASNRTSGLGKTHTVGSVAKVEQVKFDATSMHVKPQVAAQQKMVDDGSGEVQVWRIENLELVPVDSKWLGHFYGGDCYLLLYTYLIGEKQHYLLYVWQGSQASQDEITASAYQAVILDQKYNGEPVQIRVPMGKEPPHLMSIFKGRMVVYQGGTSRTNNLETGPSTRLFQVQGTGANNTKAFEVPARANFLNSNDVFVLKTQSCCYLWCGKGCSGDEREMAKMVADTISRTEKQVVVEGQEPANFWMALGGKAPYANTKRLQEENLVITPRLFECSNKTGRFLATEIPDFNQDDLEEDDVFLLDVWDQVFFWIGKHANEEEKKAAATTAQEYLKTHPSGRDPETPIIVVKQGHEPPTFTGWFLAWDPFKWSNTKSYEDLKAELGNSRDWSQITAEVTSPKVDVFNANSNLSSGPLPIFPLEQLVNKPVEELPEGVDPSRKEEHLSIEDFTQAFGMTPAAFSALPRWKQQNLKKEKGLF
UniProt Q9UDW1: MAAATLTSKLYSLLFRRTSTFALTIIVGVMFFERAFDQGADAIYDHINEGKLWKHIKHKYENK

What was measured:
Assay in all cases: log2 fold change, soluble protein after heating vs DMSO (PISA); higher = thermal stabilisation; K562 lysate, 10 uM; active = over 0.2 and 3.5 SD of the protein, either way, in both replicates (recomputed)
vemurafenib = compound: CCCS(=O)(=O)Nc1ccc(F)c(C(=O)c2c[nH]c3ncc(-c4ccc(Cl)cc4)cc23)c1F [vemurafenib]
Method in brief: (§1)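 To prepare the extract, K562 pellets were dounce-homogenised in PBS pH 7.4 with 1 mM MgCl2, giving crude material at 1 mg/mL protein. This was treated with 10 μM compound for 30 min, then heated in aliquots for 3 min over 48°C-58°C before pooling and addition of NP-40 to 0.5% at 4°C. Centrifugation at 21,000xg for 90 min left soluble protein in the supernatant, which TMTpro 16plex LC-MS/MS quantified with equalised channel sums. Results are log-two fold changes in thermal stability compared with solvent controls, from duplicates.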

[1] = compound: CCCS(=O)(=O)Nc1ccc(F)c(C(=O)c2c[nH]c3ncc(Cl)cc23)c1F
Method in brief: as §1

barasertib = compound: CCN(CCCOc1ccc2c(Nc3cc(CC(=O)Nc4cccc(F)c4)[nH]n3)ncnc2c1)CCOP(=O)(O)O [barasertib]
Method in brief: as §1

[2] = compound: CC[C@@H]1C(=O)N(C)c2cnc(Nc3ccc(C(=O)NC4CCN(C)CC4)cc3OC)nc2N1C1CCCC1
Method in brief: as §1

volasertib = compound: CC[C@@H]1C(=O)N(C)c2cnc(Nc3ccc(C(=O)N[C@H]4CC[C@H](N5CCN(CC6CC6)CC5)CC4)cc3OC)nc2N1C(C)C [volasertib]
Method in brief: as §1

[3] = compound: CCn1c(C(=O)N(C2CC2)C2CC2)cc2c3c(ncn3C)c(Nc3cc(C)n(C)n3)nc21
Method in brief: as §1

[4] = compound: CCn1cc(-c2ccnc3[nH]c(-c4cccc(CN(C)C)c4)cc23)c(-c2ccc(NC(=O)N(C)C)cc2)n1
Method in brief: as §1

[5] = compound: CN1CCC(CNc2ccc3ncc(-c4cccc(OC(F)(F)F)c4)n3n2)CC1
Method in brief: as §1

saracatinib = compound: CN1CCN(CCOc2cc(OC3CCOCC3)c3c(Nc4c(Cl)ccc5c4OCO5)ncnc3c2)CC1 [saracatinib]
Method in brief: as §1

sotrastaurin = compound: CN1CCN(c2nc(C3=C(c4c[nH]c5ccccc45)C(=O)NC3=O)c3ccccc3n2)CC1 [sotrastaurin]
Method in brief: as §1

alvocidib = compound: CN1CC[C@H](c2c(O)cc(O)c3c(=O)cc(-c4ccccc4Cl)oc23)[C@H](O)C1 [alvocidib]
Method in brief: as §1

Tubastatin A = compound: CN1CCc2c(c3ccccc3n2Cc2ccc(C(=O)NO)cc2)C1 [Tubastatin A]
Method in brief: as §1

[6] = compound: CNC(=O)C1=CC=CC=C1NC2=NC(=NC=C2Cl)NC3=C(C=C(C=C3)N4CCOCC4)OC
Method in brief: as §1

defactinib = compound: CNC(=O)c1ccc(Nc2ncc(C(F)(F)F)c(NCc3nccnc3N(C)S(C)(=O)=O)n2)cc1 [defactinib]
Method in brief: as §1

[7] = compound: CNc1nc(-c2ccc3c(N)n[nH]c3c2)cc(N2C[C@@H](C(=O)NC3CCCCC3)CC[C@H]2C)n1
Method in brief: as §1

encorafenib = compound: COC(=O)N[C@@H](C)CNc1nccc(-c2cn(C(C)C)nc2-c2cc(Cl)cc(NS(C)(=O)=O)c2F)n1 [encorafenib]
Method in brief: as §1

[8] = compound: COC(=O)[C@H](CCSC)NC(=O)C1=C(C=C(C=C1)NC[C@H](CS)N)C2=CC=CC=C2
Method in brief: as §1

alisertib = compound: COc1cc(Nc2ncc3c(n2)-c2ccc(Cl)cc2C(c2c(F)cccc2OC)=NC3)ccc1C(=O)O [alisertib]
Method in brief: as §1

[9] = compound: COc1cc2nc(-c3cc(F)ccc3O)nc(N[C@@H]3CNC[C@H]3C(C)(C)O)c2cc1OC
Method in brief: as §1

gefitinib = compound: COc1cc2ncnc(Nc3ccc(F)c(Cl)c3)c2cc1OCCCN1CCOCC1 [gefitinib]
Method in brief: as §1

Measured: log2 fold change

VAPA isoform 2 (UniProt Q9P0L0)
inactive: vemurafenib 0.004 | [1] -0.017 | barasertib -0.037 | [2] 0.078 | volasertib 0.025 | [3] -0.004 | [4] -0.194 | [5] 0.166 | saracatinib -0.02 | sotrastaurin 0.008 | alvocidib -0.094 | Tubastatin A 0.044 | [6] -0.021 | defactinib -0.032 | [7] -0.001 | encorafenib 0.01 | [8] -0.184 | alisertib 0.035 | [9] 0.029 | gefitinib 0.021

VAMP4 (UniProt O75379)
inactive: vemurafenib -0.026 | [1] 0.005 | barasertib 0.052 | [2] 0.022 | volasertib 0.004 | [3] 0.028 | [4] -0.031 | [5] 0.105 | saracatinib -0.004 | sotrastaurin -0.048 | alvocidib -0.023 | Tubastatin A 0.046 | [6] -0.07 | defactinib 0.041 | [7] -0.115 | encorafenib 0.024 | [8] -0.073 | alisertib 0.141 | [9] 0.052 | gefitinib 0.029

UQCRFS1 (UniProt P47985)
inactive: vemurafenib 0.001 | [1] 0.008 | barasertib 0.001 | [2] 0.022 | volasertib 0.026 | [3] -0.002 | [4] 0.166 | [5] -0.074 | saracatinib -0.019 | sotrastaurin -0.031 | alvocidib 0.005 | Tubastatin A 0.023 | [6] -0.011 | defactinib -0.021 | [7] 0.033 | encorafenib -0.01 | [8] -0.081 | alisertib 0.001 | [9] -0.015 | gefitinib -0.006

UVRAG (UniProt Q9P2Y5)
inactive: vemurafenib -0.014 | [1] 0.015 | barasertib 0.042 | [2] 0.018 | volasertib -0.009 | [3] 0.018 | [4] -0.02 | [5] 0.025 | saracatinib -0.032 | sotrastaurin -0.007 | alvocidib 0.017 | Tubastatin A -0.008 | [6] 0.026 | defactinib 0.039 | [7] -0.035 | encorafenib 0.035 | [8] -0.077 | alisertib 0.029 | [9] -0.008 | gefitinib 0.051

USP8 (UniProt P40818)
inactive: vemurafenib 0 | [1] 0.015 | barasertib 0.001 | [2] -0.008 | volasertib -0.05 | [3] 0.033 | [4] -0.002 | [5] -0.063 | saracatinib -0.006 | sotrastaurin -0.021 | alvocidib 0.023 | Tubastatin A -0.018 | [6] 0.014 | defactinib 0.02 | [7] 0.005 | encorafenib 0.004 | [8] 0.102 | alisertib -0.011 | [9] 0.002 | gefitinib 0.015

USP6NL isoform 2 (UniProt Q92738)
inactive: vemurafenib 0.213 | [1] -0.02 | [2] -0.03 | volasertib 0.043 | [4] 0.055 | [5] -0.082 | sotrastaurin 0.094 | alvocidib -0.001 | defactinib 0.165 | encorafenib 0.014 | [8] 0.078 | alisertib -0.022 | [9] -0.027 | gefitinib -0.104

Looked up one by one from the entries so far (2):
VAMP4 (UniProt O75379)
inactive: vemurafenib -0.026 | [1] 0.005 | barasertib 0.052 | [2] 0.022 | volasertib 0.004 | [3] 0.028 | [4] -0.031 | [5] 0.105 | saracatinib -0.004 | sotrastaurin -0.048 | alvocidib -0.023 | Tubastatin A 0.046 | [6] -0.07 | defactinib 0.041 | [7] -0.115 | encorafenib 0.024 | [8] -0.073 | alisertib 0.141 | [9] 0.052 | gefitinib 0.029

USP8 (UniProt P40818)
inactive: vemurafenib 0 | [1] 0.015 | barasertib 0.001 | [2] -0.008 | volasertib -0.05 | [3] 0.033 | [4] -0.002 | [5] -0.063 | saracatinib -0.006 | sotrastaurin -0.021 | alvocidib 0.023 | Tubastatin A -0.018 | [6] 0.014 | defactinib 0.02 | [7] 0.005 | encorafenib 0.004 | [8] 0.102 | alisertib -0.011 | [9] 0.002 | gefitinib 0.015

The list continues:

UROD (UniProt H0Y5R6)
inactive: vemurafenib 0.314 | [1] 0.127 | barasertib -0.493 | [2] -0.007 | volasertib -0.047 | [3] 0.12 | Tubastatin A 0.218 | defactinib -0.316 | encorafenib -0.103 | [8] -0.06 | [9] -0.025

USP12 (UniProt O75317)
inactive: vemurafenib 0.131 | [1] 0.075 | [2] 0.024 | volasertib -0.003 | [3] 0.076 | [4] -0.056 | [5] -0.008 | sotrastaurin 0.05 | alvocidib -0.127 | Tubastatin A 0.037 | [6] 0.07 | defactinib -0.13 | encorafenib 0.111 | [8] -0.046 | alisertib 0.13 | [9] 0.028 | gefitinib 0.155

VHL (UniProt P40337)
inactive: vemurafenib 0.027 | barasertib -0.005 | [2] -0.065 | [3] -0.054 | [4] 0.11 | [5] -0.086 | saracatinib 0.019 | sotrastaurin -0.038 | alvocidib -0.06 | Tubastatin A -0.117 | [6] -0.009 | defactinib -0.034 | [7] -0.047 | encorafenib 0.143 | [8] -0.047 | alisertib 0.05 | gefitinib -0.029

UNC13B isoform 2 (UniProt O14795)
inactive: vemurafenib 0.143 | [1] -0.034 | [2] 0.027 | volasertib 0.071 | [3] 0.014 | saracatinib 0.002 | sotrastaurin 0.052 | Tubastatin A -0.033 | [6] 0.1 | defactinib -0.002 | [7] -0.238 | encorafenib 0.265 | [8] 0.082 | alisertib -0.018 | [9] 0.043 | gefitinib 0.011

USB1 (UniProt Q9BQ65)
inactive: vemurafenib 0.015 | [1] 0.166 | [2] 0.05 | volasertib -0.062 | [3] -0.022 | [4] -0.261 | [5] 0.065 | saracatinib 0.038 | sotrastaurin 0.109 | alvocidib 0.02 | Tubastatin A -0.115 | [6] 0.079 | defactinib -0.021 | [7] -0.064 | encorafenib 0.041 | [8] 0.301 | alisertib -0.095 | [9] 0 | gefitinib -0.014

VIL1 (UniProt P09327)
inactive: vemurafenib 0.036 | [1] 0.14 | barasertib 0.177 | [2] -0.032 | volasertib -0.188 | [3] 0.052 | [4] 0.04 | [5] 0.06 | saracatinib -0.087 | sotrastaurin -0.011 | alvocidib 0.077 | Tubastatin A -0.058 | [6] 0.15 | defactinib -0.087 | [7] 0.184 | encorafenib 0.029 | [8] 0.151 | [9] 0.071

UQCR10 (UniProt Q9UDW1)
inactive: vemurafenib -0.043 | [1] -0.002 | [2] 0.005 | volasertib 0.057 | [3] 0.053 | [4] -0.091 | [5] 0.167 | saracatinib 0.042 | sotrastaurin 0.06 | alvocidib -0.004 | Tubastatin A -0.062 | [6] -0.016 | defactinib 0.08 | [7] 0.039 | encorafenib 0.051 | [8] -0.057 | alisertib -0.024 | [9] 0.019 | gefitinib -0.016
